Data taken from the supplement of paper PMC9135407.
“And” between values parts separate entries of the source, which are not always exact repeats. Equal entries are not always repeated. Structures can show the parent of a compound that is named as a salt. ± gives the standard deviation of the averaged measurements. The list shows a part of the results. Plates or batches differ in their baseline, so values are only roughly comparable.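 Culture-activated primary human stellate myofibroblasts, where regained lipid droplets signal inactivation. Value: share of Hoechst-counted cells above a per-plate Bodipy cutoff, in duplicate wells, with DMSO negative and nortriptyline positive controls on each plate. Hits: a control-normalized score above the plate's top-tenth-percentile nortriptyline wells, or one of a plate's three best wells. Final well concentrations are not given.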

System: primary human hepatic stellate cells (donor 1)
Assay: percent Bodipy-positive cells; higher = more lipid droplet accumulation
Conditions: 48 h
[1] = library stock concentration: 10 mM
[2] = library stock concentration: 1 mM
[3] = library stock concentration: 3.33 mM
[4] = library stock concentration: 80 uM
[5] = library stock concentration: 400 uM
[6] = library stock concentration: 2 mM

**Q.** For `COc1ccc(CCC(C)NC2CC(C)(C)NC(C)(C)C2)cc1` (centres undefined), which “percent Bodipy-positive cells” value [1] is on record?
**A.** 93.6 ± 1.9%

**Q.** `CCOC(=O)/C=C/[C@H](CC(C)C)NC(=O)[C@H](CO)NC(=O)[C@@H](NC(=O)c1cccc(O)c1C)C(C)C` was tested. Which “percent Bodipy-positive cells” value [2] did it give?
**A.** 10.3 ± 5.4%

**Q.** With `CC[C@@H]1/C=C(\C)C[C@H](C)C[C@H](OC)[C@H]2O[C@@](O)(C(=O)C(=O)N3CCCC[C@H]3C(=O)O[C@H](/C(C)=C/[C@@H]3CC[C@@H](O)[C@H](OC)C3)[C@H](C)[C@@H](O)CC1=O)[C@H](C)C[C@@H]2OC` [Ascomycin (FK-520)] as the compound, how does the “percent Bodipy-positive cells” value (library stock concentration: 6.3 mM) read?
**A.** 7.64 ± 0.66%

**Q.** How did the “percent Bodipy-positive cells” value [3] turn out when `Cn1cc(-c2[nH]c3cc(NC(=O)[C@H](N)C4CCCCC4)cc4c3c2C=NNC4=O)cn1` was run?
**A.** 29.7 ± 9.7%

**Q.** And the “percent Bodipy-positive cells” value [1]?
**A.** 61.2 ± 18%

**Q.** How did the “percent Bodipy-positive cells” value [2] turn out when `COc1ccc2cc(C(C#N)OC(=O)CC3OC3c3ccccc3)ccc2c1` (centres undefined) was run?
**A.** 11.1 ± 1%

**Q.** For `CCCCCCCCCCCCCCCC(=O)NCCS(=O)(=O)O` [N-Palmitoyl Taurine], which “percent Bodipy-positive cells” value [2] is on record?
**A.** 10.1 ± 1.9%

**Q.** For `CC1(C)CNc2cc(NC(=O)c3cccnc3NCc3ccncc3)ccc21` [Motesanib Diphosphate (AMG-706)], which “percent Bodipy-positive cells” value [3] is on record?
**A.** 5.23 ± 1.8%

**Q.** And the “percent Bodipy-positive cells” value [1]?
**A.** 21.8 ± 1.3%

**Q.** `CC1(C)CNc2cc(NC(=O)c3cccnc3NCc3ccncc3)ccc21` [Motesanib (AMG-706) (10 mM)] was tested. Which “percent Bodipy-positive cells” value [1] did it give?
**A.** 29.5 ± 6%

**Q.** How did the “percent Bodipy-positive cells” value [4] turn out when `CC1(C)CNc2cc(NC(=O)c3cccnc3NCc3ccncc3)ccc21` was run?
**A.** 4.7 ± 3.2%

**Q.** What about the “percent Bodipy-positive cells” value [5] of the same compound?
**A.** 6.89 ± 3%

**Q.** And the “percent Bodipy-positive cells” value [6]?
**A.** 8.54 ± 1%

**Q.** And the “percent Bodipy-positive cells” value [1]?
**A.** 10.4 ± 3.7%

**Q.** For `CC1(C)CNc2cc(NC(=O)c3cccnc3NCc3ccncc3)ccc21` [Motesanib (AMG-706) (0.4 mM)], which “percent Bodipy-positive cells” value [5] is on record?
**A.** 15.6 ± 6.1%

**Q.** For `CC1(C)CNc2cc(NC(=O)c3cccnc3NCc3ccncc3)ccc21` [Motesanib (AMG-706) (2 mM)], which “percent Bodipy-positive cells” value [6] is on record?
**A.** 9 ± 0.24%

**Q.** Which results are given for `COC(=O)C1=C(C)NC(C)=C(C(=O)OCC(C)C)C1c1ccccc1[N+](=O)[O-]` (centres undefined) [Nisoldipine]?
**A.** percent Bodipy-positive cells: 9.17 ± 0.72%; percent Bodipy-positive cells [3]: 8.05 ± 0.73%; percent Bodipy-positive cells (library stock concentration: 5.1 mM): 7.84% and 17.6%; percent Bodipy-positive cells [1]: 35.3 ± 7.5%

**Q.** `COC(=O)C1=C(C)NC(C)=C(C(=O)OCC(C)C)C1c1ccccc1[N+](=O)[O-]` (centres undefined) was tested. Which “percent Bodipy-positive cells” value [1] did it give?
**A.** 37.2 ± 3.6%

**Q.** `Oc1cc(O)c(Cl)cn1` [Gimeracil] was tested. Which “percent Bodipy-positive cells” value [3] did it give?
**A.** 7.56 ± 0.34%

**Q.** And the “percent Bodipy-positive cells” value [1]?
**A.** 7.41 ± 3%

**Q.** Which “percent Bodipy-positive cells” value [2] does the source give for `CC1(C)CCC(C)(C)c2cc(C(=O)Nc3ccc(C(=O)O)cc3)ccc21` here?
**A.** 11.4 ± 8%

**Q.** And the “percent Bodipy-positive cells” value [1]?
**A.** 4.96 ± 0.64%

**Q.** With `O=C1Cc2c([nH]c3ccc(Br)cc23)-c2ncccc2N1` [1-Azakenpaullone] as the compound, how does the “percent Bodipy-positive cells” value [3] read?
**A.** 61.1 ± 7.2%

**Q.** And the “percent Bodipy-positive cells” value [1]?
**A.** 87.1 ± 4.9%

**Q.** For `O=C(CCC/C=C\C[C@H]1C(=O)C[C@@H](O)C1/C=C/[C@@H](O)CCc1ccccc1)NC(CO)CO` (some centres undefined) [17-phenyl trinor Prostaglandin E2 serinol amide], which “percent Bodipy-positive cells” value [2] is on record?
**A.** 23.3 ± 17%

**Q.** Which “percent Bodipy-positive cells” value [6] does the source give for `Nc1ccccc1NC(=O)c1ccc(CNc2nccc(-c3cccnc3)n2)cc1` [Mocetinostat] here?
**A.** 86.381 ± 0.023%

**Q.** What about the “percent Bodipy-positive cells” value [1] of the same compound?
**A.** 90.34 ± 0.49%

**Q.** Which “percent Bodipy-positive cells” value [1] does the source give for `CC(=O)N1CCN(C)CC1` [1-Acetyl-4-methylpiperazine hydrochloride] here?
**A.** 4.81 ± 0.68%

**Q.** Which results are given for `Cc1cc(-c2ccc(CC(=O)Nc3ccc(-c4cccnc4)cc3)cc2)ccn1`?
**A.** percent Bodipy-positive cells [3]: 28.1 ± 12%; percent Bodipy-positive cells [1]: 52.7 ± 4.5%

**Q.** `CCCCCCC[C@H](O)/C=C/[C@@H]1[C@@H](C/C=C\CCCC(=O)O)[C@@H](O)C[C@H]1O` [20-ethyl Prostaglandin F2.alpha.] was tested. Which “percent Bodipy-positive cells” value [2] did it give?
**A.** 15.7 ± 0.57%

**Q.** How did the “percent Bodipy-positive cells” value turn out when `COC(=O)[C@H]1[C@H]2C[C@@H]3c4[nH]c5cc(OC)ccc5c4CCN3C[C@H]2C[C@@H](OC(=O)/C=C/c2cc(OC)c(OC)c(OC)c2)[C@@H]1OC` [Rescinnamin] was run?
**A.** 65.7 ± 13%

**Q.** Which results are given for `COCCOc1ccc2c(c1)ncn2-c1ccc2cccc(N3CCC(N)CC3)c2n1`?
**A.** percent Bodipy-positive cells [4]: 5.87 ± 2.3%; percent Bodipy-positive cells [5]: 25.1 ± 5.2%; percent Bodipy-positive cells [6]: 44.7 ± 4.5%; percent Bodipy-positive cells [3]: 90.5 ± 3.8%; percent Bodipy-positive cells [1]: 99.61 ± 0.56%

**Q.** With `Cc1cc(Nc2cc(N3CCN(C)CC3)nc(/C=C/c3ccccc3)n2)n[nH]1` as the compound, how does the “percent Bodipy-positive cells” value [1] read?
**A.** 100%

**Q.** With `CCCC(=O)[O-].[Na+]` [Sodium Butyrate] as the compound, how does the “percent Bodipy-positive cells” value [2] read?
**A.** 11.3 ± 2.5%

**Q.** For `COC(=O)C1=C(C)NC(C)=C(C(=O)OCCN(C)Cc2ccccc2)C1c1cccc([N+](=O)[O-])c1` (centres undefined) [Nicardipine hydrochloride], which “percent Bodipy-positive cells” value is on record?
**A.** 55.6 ± 18%

**Q.** How did the “percent Bodipy-positive cells” value [1] turn out when `COC(=O)C1=C(C)NC(C)=C(C(=O)OCCN(C)Cc2ccccc2)C1c1cccc([N+](=O)[O-])c1` (centres undefined) [Cardene] was run?
**A.** 70.5 ± 7.4%

**Q.** What does the source list for `COC(=O)C1=C(C)NC(C)=C(C(=O)OCCN(C)Cc2ccccc2)C1c1cccc([N+](=O)[O-])c1` (centres undefined) [Nicardipine HCl]?
**A.** percent Bodipy-positive cells [3]: 16.8 ± 8.5%; percent Bodipy-positive cells [1]: 71.4 ± 1.3%

**Q.** Which “percent Bodipy-positive cells” value (library stock concentration: 9.7 mM) does the source give for `COC(=O)C1=C(C)NC(C)=C(C(=O)OCCN(C)Cc2ccccc2)C1c1cccc([N+](=O)[O-])c1` (centres undefined) [Nicardipine?HCl] here?
**A.** 59.3 ± 5%

**Q.** With `Cc1cncc2cccc(S(=O)(=O)N3CCCN(C(=O)CN)C[C@@H]3C)c12` [Rho Kinase Inhibitor IV] as the compound, how does the “percent Bodipy-positive cells” value [3] read?
**A.** 6.41 ± 0.2%

**Q.** Which “percent Bodipy-positive cells” value [3] does the source give for `Cc1nc(C#Cc2ccnc(Cl)c2)c(C)n1-c1ccc(OC(F)(F)F)cc1` here?
**A.** 7.21 ± 5.5%

**Q.** And the “percent Bodipy-positive cells” value [1]?
**A.** 19.6 ± 2.9%

**Q.** Which “percent Bodipy-positive cells” value [1] does the source give for `Clc1ccc2c(c1)CCc1cccnc1C2=C1CCNCC1` here?
**A.** 91.7 ± 5.8%

**Q.** Which results are given for `OC[C@H]1O[C@@H](c2ccc(Cl)c(Cc3ccc(O[C@H]4CCOC4)cc3)c2)[C@H](O)[C@@H](O)[C@@H]1O`?
**A.** percent Bodipy-positive cells [3]: 25.8 ± 9.9%; percent Bodipy-positive cells [1]: 37.2 ± 1.5%

**Q.** With `O=C1C(O)=C([C@H]2CC[C@H](c3ccc(Cl)cc3)CC2)C(=O)c2ccccc21` [Atovaquone] as the compound, how does the “percent Bodipy-positive cells” value read?
**A.** 32.7 ± 2.2%

**Q.** And the “percent Bodipy-positive cells” value [1]?
**A.** 37.1 ± 6.7%

**Q.** How did the “percent Bodipy-positive cells” value turn out when `CC(C)NCC(O)c1ccc(O)c(O)c1` (single isomer, unassigned; (-)) [(-)-Isoproterenol hydrochloride] was run?
**A.** 12.5 ± 4.9%

**Q.** And the “percent Bodipy-positive cells” value [1]?
**A.** 43.8 ± 12%

**Q.** `NCCNS(=O)(=O)c1cccc2c(Cl)cccc12` [A3 hydrochloride] was tested. Which “percent Bodipy-positive cells” value [1] did it give?
**A.** 18.2 ± 1.9%

**Q.** What does the source list for `Cc1ccccc1C(OCCN(C)C)c1ccccc1` (centres undefined) [Orphenadrine hydrochloride]?
**A.** percent Bodipy-positive cells: 56.3 ± 5.5%; percent Bodipy-positive cells [1]: 72.83 ± 0.37%

**Q.** Which results are given for `Cc1ccccc1C(OCCN(C)C)c1ccccc1` (centres undefined) [Orphenadrine Citrate]?
**A.** percent Bodipy-positive cells [3]: 27.51 ± 0.26%; percent Bodipy-positive cells [1]: 56 ± 1.3%

**Q.** Which “percent Bodipy-positive cells” value [1] does the source give for `Cc1ccccc1C(OCCN(C)C)c1ccccc1` (centres undefined) [Norflex] here?
**A.** 79 ± 3%

**Q.** How did the “percent Bodipy-positive cells” value [1] turn out when `Cc1ccccc1C(OCCN(C)C)c1ccccc1` (centres undefined) [Orphenadrine citrate] was run?
**A.** 54 ± 7.9%

**Q.** With `Cc1ccccc1C(OCCN(C)C)c1ccccc1` (centres undefined) [Disipal] as the compound, how does the “percent Bodipy-positive cells” value [1] read?
**A.** 79.9 ± 1.8%

**Q.** How did the “percent Bodipy-positive cells” value [3] turn out when `Cc1ncc2ccccc2c1C#N` [4-Cyano-3-methylisoquinoline] was run?
**A.** 10.3 ± 0.28%

**Q.** How did the “percent Bodipy-positive cells” value [3] turn out when `CNCc1cc(-c2ccccc2F)n(S(=O)(=O)c2cccnc2)c1` was run?
**A.** 49.8 ± 2.8%

**Q.** And the “percent Bodipy-positive cells” value [1]?
**A.** 75.8 ± 11%

**Q.** How did the “percent Bodipy-positive cells” value [1] turn out when `COc1cc(C(=O)OCCC[NH+]2CCC[NH+](CCCOC(=O)c3cc(OC)c(OC)c(OC)c3)CC2)cc(OC)c1OC.[Cl-].[Cl-]` [Dilazep hydrochloride] was run?
**A.** 95.36 ± 0.28%
